Results reported in doi:10.1101/2024.12.26.629959.
No constants are given. Whether binding was seen depends on the method and setting. Binding seen in cells or lysates may run through a third protein. A yes stands for co-enrichment or nearness to the bait. Other partners may have been found.

Chains of the proteins cited; added tags and fusions are not shown. Lines headed by an entry give the natural chain unless they say otherwise; changes in a name come on top. Residues count along the entry.
UniProt O08532, residues 25-1073: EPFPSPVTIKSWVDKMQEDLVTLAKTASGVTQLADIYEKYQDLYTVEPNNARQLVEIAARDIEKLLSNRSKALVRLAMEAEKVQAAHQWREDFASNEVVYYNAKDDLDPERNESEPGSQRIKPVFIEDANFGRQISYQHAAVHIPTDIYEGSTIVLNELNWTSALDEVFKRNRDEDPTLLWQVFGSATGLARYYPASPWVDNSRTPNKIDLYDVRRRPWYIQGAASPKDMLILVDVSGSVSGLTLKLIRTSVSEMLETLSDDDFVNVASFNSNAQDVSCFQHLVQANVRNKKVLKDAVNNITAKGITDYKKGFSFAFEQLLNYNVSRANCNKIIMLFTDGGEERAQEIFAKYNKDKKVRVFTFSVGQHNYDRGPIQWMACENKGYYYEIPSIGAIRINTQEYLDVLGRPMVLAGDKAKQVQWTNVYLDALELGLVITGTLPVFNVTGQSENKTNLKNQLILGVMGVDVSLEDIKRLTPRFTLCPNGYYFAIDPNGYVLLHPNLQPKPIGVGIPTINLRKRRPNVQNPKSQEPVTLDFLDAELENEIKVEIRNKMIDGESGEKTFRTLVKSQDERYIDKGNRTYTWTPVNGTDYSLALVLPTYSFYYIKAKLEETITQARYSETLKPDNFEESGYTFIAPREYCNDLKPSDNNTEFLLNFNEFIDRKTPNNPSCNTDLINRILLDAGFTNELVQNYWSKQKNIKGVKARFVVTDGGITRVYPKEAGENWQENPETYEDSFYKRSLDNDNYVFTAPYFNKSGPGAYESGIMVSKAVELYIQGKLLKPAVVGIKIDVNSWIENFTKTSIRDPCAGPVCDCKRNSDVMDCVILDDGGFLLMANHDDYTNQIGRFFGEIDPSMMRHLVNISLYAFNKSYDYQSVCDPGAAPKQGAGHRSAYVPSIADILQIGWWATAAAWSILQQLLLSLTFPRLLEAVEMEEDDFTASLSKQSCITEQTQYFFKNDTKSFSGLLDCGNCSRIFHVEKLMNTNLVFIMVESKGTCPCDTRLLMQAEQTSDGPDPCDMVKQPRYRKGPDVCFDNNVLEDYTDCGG
UniProt P11627, residues 20-1260: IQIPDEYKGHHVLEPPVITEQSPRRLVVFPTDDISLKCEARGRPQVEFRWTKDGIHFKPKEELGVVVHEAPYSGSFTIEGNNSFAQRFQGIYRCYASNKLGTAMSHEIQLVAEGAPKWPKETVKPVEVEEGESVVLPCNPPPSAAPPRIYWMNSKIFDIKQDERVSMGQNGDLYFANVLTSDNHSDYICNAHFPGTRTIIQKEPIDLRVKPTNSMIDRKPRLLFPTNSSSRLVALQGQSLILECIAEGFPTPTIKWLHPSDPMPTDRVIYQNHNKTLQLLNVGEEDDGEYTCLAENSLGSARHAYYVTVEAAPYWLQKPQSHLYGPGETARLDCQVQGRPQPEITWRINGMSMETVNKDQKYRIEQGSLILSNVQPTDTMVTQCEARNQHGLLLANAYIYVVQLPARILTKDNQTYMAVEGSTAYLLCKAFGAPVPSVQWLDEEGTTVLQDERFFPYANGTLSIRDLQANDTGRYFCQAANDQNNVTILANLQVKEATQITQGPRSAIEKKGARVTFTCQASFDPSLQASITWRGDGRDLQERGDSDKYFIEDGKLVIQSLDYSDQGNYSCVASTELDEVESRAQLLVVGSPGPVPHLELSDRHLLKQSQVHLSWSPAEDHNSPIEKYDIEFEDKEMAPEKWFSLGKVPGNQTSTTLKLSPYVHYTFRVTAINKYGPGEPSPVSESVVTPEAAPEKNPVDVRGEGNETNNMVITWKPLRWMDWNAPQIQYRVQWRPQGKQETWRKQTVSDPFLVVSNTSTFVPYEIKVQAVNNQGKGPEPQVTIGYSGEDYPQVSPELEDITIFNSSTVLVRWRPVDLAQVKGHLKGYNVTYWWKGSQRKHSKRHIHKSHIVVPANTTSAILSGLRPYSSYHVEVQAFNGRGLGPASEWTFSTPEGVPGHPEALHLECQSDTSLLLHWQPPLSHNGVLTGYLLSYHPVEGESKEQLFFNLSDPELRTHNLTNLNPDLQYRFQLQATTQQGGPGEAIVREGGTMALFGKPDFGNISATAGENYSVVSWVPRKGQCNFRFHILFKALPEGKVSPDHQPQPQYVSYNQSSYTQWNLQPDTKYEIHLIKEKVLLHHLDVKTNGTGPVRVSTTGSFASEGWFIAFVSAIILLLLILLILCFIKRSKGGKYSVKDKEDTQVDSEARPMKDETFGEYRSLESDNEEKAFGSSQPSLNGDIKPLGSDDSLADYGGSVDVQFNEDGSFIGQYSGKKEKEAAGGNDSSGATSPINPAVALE
UniProt Q9R0K7: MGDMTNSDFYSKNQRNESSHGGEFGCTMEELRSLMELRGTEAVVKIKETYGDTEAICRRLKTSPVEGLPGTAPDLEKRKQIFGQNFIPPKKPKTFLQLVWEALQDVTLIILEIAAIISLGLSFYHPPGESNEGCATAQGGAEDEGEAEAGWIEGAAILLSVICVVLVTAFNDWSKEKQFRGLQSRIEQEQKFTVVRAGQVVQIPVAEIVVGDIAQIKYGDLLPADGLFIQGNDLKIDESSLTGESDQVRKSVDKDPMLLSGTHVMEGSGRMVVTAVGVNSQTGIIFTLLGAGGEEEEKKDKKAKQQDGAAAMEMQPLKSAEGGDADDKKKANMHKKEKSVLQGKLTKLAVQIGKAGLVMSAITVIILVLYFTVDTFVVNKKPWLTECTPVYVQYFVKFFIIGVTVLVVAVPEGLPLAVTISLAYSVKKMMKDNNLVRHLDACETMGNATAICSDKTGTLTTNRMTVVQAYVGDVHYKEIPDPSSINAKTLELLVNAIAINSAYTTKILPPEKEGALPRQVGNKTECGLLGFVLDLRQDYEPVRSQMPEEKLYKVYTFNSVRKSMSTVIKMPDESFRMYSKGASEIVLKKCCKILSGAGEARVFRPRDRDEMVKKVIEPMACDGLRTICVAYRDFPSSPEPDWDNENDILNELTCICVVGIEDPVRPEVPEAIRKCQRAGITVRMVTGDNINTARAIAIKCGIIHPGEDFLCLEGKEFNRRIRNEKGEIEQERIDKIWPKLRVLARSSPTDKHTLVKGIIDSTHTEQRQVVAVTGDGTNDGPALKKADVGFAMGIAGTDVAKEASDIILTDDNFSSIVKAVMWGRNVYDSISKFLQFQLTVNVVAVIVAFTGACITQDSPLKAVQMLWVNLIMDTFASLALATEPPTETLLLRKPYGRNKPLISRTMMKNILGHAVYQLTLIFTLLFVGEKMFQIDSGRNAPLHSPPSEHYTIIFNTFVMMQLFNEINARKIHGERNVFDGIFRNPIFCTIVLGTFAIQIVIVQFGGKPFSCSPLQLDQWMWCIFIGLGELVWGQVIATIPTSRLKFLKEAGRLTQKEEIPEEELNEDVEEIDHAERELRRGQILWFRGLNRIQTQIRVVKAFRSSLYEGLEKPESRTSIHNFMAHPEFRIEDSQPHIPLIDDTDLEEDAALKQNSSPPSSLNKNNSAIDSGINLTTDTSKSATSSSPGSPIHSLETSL

B1: Cadm3 (protein, UniProt Q99N28 23-396)
chain: NLSQDDSQPWTSDETVVAGGTVVLKCQVKDHEDSSLQWSNPAQQTLYFGEKRALRDNRIQLVSSTPHELSISISNVALADEGEYTCSIFTMPVRTAKSLVTVLGIPQKPIITGYKSSLREKETATLNCQSSGSKPAAQLTWRKGDQELHGDQTRIQEDPNGKTFTVSSSVSFQVTREDDGANIVCSVNHESLKGADRSTSQRIEVLYTPTAMIRPEPAHPREGQKLLLHCEGRGNPVPQQYVWVKEGSEPPLKMTQESALIFPFLNKSDSGTYGCTATSNMGSYTAYFTLNVNDPSPVPSSSSTYHAIIGGIVAFIVFLLLILLIFLGHYLIRHKGTYLTHEAKGSDDAPDADTAIINAEGGQSGGDDKKEYFI
B2: Igsf8 (protein, UniProt Q8R366 26-611)
chain: RQVHVPRGPLYRVAGTAVSISCNVSDYEGPAQQDFEWFMYRPEAPATSLGIVSTKDSQFSYAVFGPRVASGDLQVQRLKGDSVVLKIARLQAQDSGFYECYTPSTDTQYLGNYSAKVELRVLPDELQVSAAPPGPRGRQAATSPSRLTVHEGQELALGCLAQTKTKKHTHLSVSFGRAIPEAPVGRATLQEVVGLRSDMAVEAGAPYAERLASGELRLSKEGTDRYRMVVGGAQAGDSGTYHCTAAEWIQDPDGSWVQVAEKRAVLAHVDVQTLSSQLAVTVGPGERRIGPGEPLELLCNVSGALPPPGRHAAYSVGWEMAPAGAPGPGRLVAQLDTEGIGSLGPGYEDRHIAMEKVASRTYRLRLEAARPADAGTYRCLAKAYVRGSGTRLREAASARSRPLPVHVREEGVVLEAVAWLAGGTVYRGETASLLCNISVRGGPPGLRLAASWWVERPEEGELSSGPAQLVGGVGQDGVAELGVRPGGGPVSVELVGPRSHRLRLHGLGPEDEGIYHCAPSAWVQHADYSWYQAGSARSGPVTVYPYTHAVDTLFVPLLVGTGVALVTGASVLATITCCFMKRMRKR
B3: Cntn1 (protein, UniProt P12960 21-1001)
chain: DFTWHRRYGHGVSEEDKGFGPIFEEQPINTIYPEESLEGKVSLNCRARASPFPVYKWRMNNGDVDLTNDRYSMVGGNLVINNPDKQKDAGVYYCLASNNYGMVRSTEATLSFGYLDPFPPEERPEVKVKEGKGMVLLCDPPYHFPDDLSYRWLLNEFPVFITMDKRRFVSQTNGNLYIANVESSDRGNYSCFVSSPSITKSVFSKFIPLIPIPERTTKPYPADIVVQFKDIYTMMGQNVTLECFALGNPVPDIRWRKVLEPMPSTAEISTSGAVLKIFNIQLEDEGLYECEAENIRGKDKHQARIYVQAFPEWVEHINDTEVDIGSDLYWPCIATGKPIPTIRWLKNGYSYHKGELRLYDVTFENAGMYQCIAENAYGSIYANAELKILALAPTFEMNPMKKKILAAKGGRVIIECKPKAAPKPKFSWSKGTEWLVNSSRILIWEDGSLEINNITRNDGGIYTCFAENNRGKANSTGTLVITNPTRIILAPINADITVGENATMQCAASFDPALDLTFVWSFNGYVIDFNKEITHIHYQRNFMLDANGELLIRNAQLKHAGRYTCTAQTIVDNSSASADLVVRGPPGPPGGLRIEDIRATSVALTWSRGSDNHSPISKYTIQTKTILSDDWKDAKTDPPIIEGNMESAKAVDLIPWMEYEFRVVATNTLGTGEPSIPSNRIKTDGAAPNVAPSDVGGGGGTNRELTITWAPLSREYHYGNNFGYIVAFKPFDGEEWKKVTVTNPDTGRYVHKDETMTPSTAFQVKVKAFNNKGDGPYSLVAVINSAQDAPSEAPTEVGVKVLSSSEISVHWKHVLEKIVESYQIRYWAGHDKEAAAHRVQVTSQEYSARLENLLPDTQYFIEVGACNSAGCGPSSDVIETFTRKAPPSQPPRIISSVRSGSRYIITWDHVVALSNESTVTGYKILYRPDGQHDGKLFSTHKHSIEVPIPRDGEYVVEVRAHSDGGDGVVSQVKISGVSTLS
B4: Ncam2 (protein, UniProt O35136 20-837)
chain: LLQVTISLSKVELSVGESKFFTCTAIGEPESIDWYNPQGEKIISTQRVMLQKEGVRSRLTIYNANIEDAGIYRCQATDAKGQTQEATVVLEIYQKLTFREVVSPQEFKQGEDAEVVCRVSSSPAPAVSWLYHNEEVTTIPDNRFAVLANNNLQILNINKSDEGIYRCEGRVEARGEIDFRDIIVIVNVPPAIMMPQKSFNATAERGEEMTLTCKASGSPDPTISWFRNGKLIEENEKYILKGSNTELTVRNIINKDGGSYVCKATNKAGEDQKQAFLQVFVQPHILQLKNETTSENGHVTLVCEAEGEPVPEITWKRAIDGVMFSEGDKSPDGRIEVKGQHGRSSLHIRDVKLSDSGRYDCEAASRIGGHQRSMHLDIEYAPKFVSNQTMYYSWEGNPINISCDVTANPPASIHWRREKLLLPAKNTTHLKTHSVGRKMILEIAPTSDNDFGRYNCTATNRIGTRFQEYILELADVPSSPHGVKIIELSQTTAKISFNKPESHGGVPIHHYQVDVKEVASETWKIVRSHGVQTMVVLSSLEPNTTYEIRVAAVNGKGQGDYSKIEIFQTLPVREPSPPSIHGQPSSGKSFKISITKQDDGGAPILEYIVKYRSKDKEDQWLEKKVQGNKDHIILEHLQWTMGYEVQITAANRLGYSEPTVYEFSMPPKPNIIKDTLFNGLGLGAIIGLGVAALLLILVVTDVSCFFIRQCGLLMCITRRMCGKKSGSSGKSKELEEGKAAYLKDGSKEPIVEMRTEDERITNHEDGSPVNEPNETTPLTEPEKLPLKEENGKEVLNAETIEIKVSNDIIQSKEDDIKA
B5: Kcc2 (protein, UniProt Q91V14 1-1138)
chain: MSRRFTVTSLPPAASAASADPESRRHSVADPRRLPREDVKGDGNPKESSPFINSTDTEKGREYDGRNMALFEEEMDTSPMVSSLLSGLANYTNLPQGSREHEEAENNEGGKKKPVQAPRMGTFMGVYLPCLQNIFGVILFLRLTWVVGIAGIMESFCMVFICCSCTMLTAISMSAIATNGVVPAGGSYYMISRSLGPEFGGAVGLCFYLGTTFAGAMYILGTIEILLAYLFPAMAIFKAEDASGEAAAMLNNMRVYGTCVLTCMATVVFVGVKYVNKFALVFLGCVILSILAIYAGVIKSAFDPPNFPICLLGNRTLSRHGFDVCAKLAWEGNETVTTRLWGLFCSSRLLNATCDEYFTRNNVTEIQGIPGAASGLIKENLWSSYLTKGVIVERRGMPSVGLADGTPVDMDHPYVFSDMTSYFTLLVGIYFPSVTGIMAGSNRSGDLRDAQKSIPTGTILAIATTSAVYISSVVLFGACIEGVVLRDKFGEAVNGNLVVGTLAWPSPWVIVIGSFFSTCGAGLQSLTGAPRLLQAISRDGIVPFLQVFGHGKANGEPTWALLLTACICEIGILIASLDEVAPILSMFFLMCYMFVNLACAVQTLLRTPNWRPRFRYYHWTLSFLGMSLCLALMFICSWYYALVAMLIAGLIYKYIEYRGAEKEWGDGIRGLSLSAARYALLRLEEGPPHTKNWRPQLLVLVRVDQDQNVVHPQLLSLTSQLKAGKGLTIVGSVLEGTFLDNHPQAQRAEESIRRLMEAEKVKGFCQVVISSNLRDGVSHLIQSGGLGGLQHNTVLVGWPRNWRQKEDHQTWRNFIELVRETTAGHLALLVTKNVSMFPGNPERFSEGSIDVWWIVHDGGMLMLLPFLLRHHKVWRKCKMRIFTVAQMDDNSIQMKKDLTTFLYHLRITAEVEVVEMHESDISAYTYEKTLVMEQRSQILKQMHLTKNEREREIQSITDESRGSIRRKNPANPRLRLNVPEETACDNEEKPEEEVQLIHDQSAPSCPSSSPSPGEEPEGERETDPEVHLTWTKDKSVAEKNKGPSPVSSEGIKDFFSMKPEWENLNQSNVRRMHTAVRLNEVIVNKSRDAKLVLLNMPGPPRNRNGDENYMEFLEVLTEQLDRVMLVRGGGREVITIYS
B6: Cadherin-13 (protein, UniProt Q9WTR5 139-693)
chain: SIVVSPILIPENQRQPFPRDVGKVVDSDRPEGSKFRLTGKGVDQDPKGTFRINENTGSVSVTRTLDRETIATYQLYVETTDASGKTLEGPVPLEVIVIDQNDNRPIFREGPYIGHVMEGSPTGTTVMRMTAFDADDPATDNALLRYNIRQQTPDKPSPNMFYIDPEKGDIVTVVSPALLDRETLENPKYELIIEAQDMAGLDVGLTGTATATIVIDDKNDHSPKFTKKEFQATVEEGAVGVIVNLTVEDKDDPTTGAWRAAYTIINGNPGQSFEIHTNPQTNEGMLSVVKPLDYEISAFHTLLIKVENEDPLVPDVSYGPSSTATVHITVLDVNEGPVFYPDPMMVTKQENISVGSVLLTVNATDPDSLQHQTIRYSIYKDPAGWLSINPINGTVDTTAVLDRESPFVHNSVYTALFLAIDSGNPPATGTGTLLITLEDINDNAPVIYPTVAEVCDDARNLSVVILGASDKDLHPNTDPFKFEIHKQTVPDKVWKISKINNTHALVSLLQNLNKANYNLPIMVTDSGKPPMTNITDLRVQVCSCKNSKVDCNGAG

Target: SEAD1 (Synthetic Ectodomain of Alpha2Delta-1), recombinant mouse soluble α2δ-1 (mouse) (UniProt O08532)
Assay: affinity purification with mass spectrometry

binding, binds:
L1Cam (from UniProt P11627 20-1260), Atp2b2 (from UniProt Q9R0K7 1-1198), B1, B2, B3, B4, B5, B6
